Measured data: PubChem BioAssay AID1259282 (Sanger Institute, 2017)

Screen: 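Kinase knock-downs that work with targeted colorectal cancer drugs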 (primary screen)
System: DIFI human colorectal cancer cell line
Knock-down reagent: siRNA pool against human genes
Conditions: anchor drug at a mild dose (BYL719 1 µM, cetuximab 5 µg/ml, trametinib 10 nM) or DMSO vehicle; exposure time not given
Read-out: 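Robust z-score and replicate-mean viability versus non-targeting pool without drug, plus a synergy score for each low-dose anchor drug (BYL719, cetuximab, trametinib)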
Direction: robust z-score, knock-down alone: higher = more viable cells than typical knock-down; viability, knock-down alone: higher = more viable cells; synergy score with trametinib and synergy score with cetuximab and synergy score with BYL719: higher = stronger combined killing with drug
Call rule: 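a knock-down is called essential if its DMSO robust z-score is under -3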
Calls: active = essential (knock-down alone, z below -3); inactive = not essential
Here is a random part of 794 deposited reagents. In the full data, 11 (1.4%) were called active. 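Calls flag knock-downs that lower viability without drug; drug synergy appears only in the synergy scores; exposure time not stated.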 Viability is capped at 1. Not given: the amount of reagent, the time to read-out.

target | robust z-score, knock-down alone | viability, knock-down alone (fraction of control) | synergy score with trametinib | synergy score with cetuximab | synergy score with BYL719 | activity call
BMX (GeneID 660) | 0.715 | 1 | 0.11 | 0.0758 | -0.106 | inactive
PFKFB1 (GeneID 5207) | -1.31 | 0.706 | 0.0155 | 0.0491 | -0.156 | inactive
CSF1R (GeneID 1436) | -2.66 | 0.509 | 0.0434 | 0.0193 | 0.115 | inactive
DCK (GeneID 1633) | -2.51 | 0.532 | 0.0483 | -0.00523 | -0.0603 | inactive
PBK (GeneID 55872) | 0.715 | 1 | -0.092 | 0.0279 | -0.283 | inactive
TESK1 (GeneID 7016) | 0.715 | 1 | 0.172 | -0.0181 | -0.0851 | inactive
CDKN1A (GeneID 1026) | 0.715 | 1 | -0.267 | -0.0872 | -0.21 | inactive
BLK (GeneID 640) | 0.715 | 1 | 0.0257 | -0.203 | -0.224 | inactive
TNK1 (GeneID 8711) | -0.151 | 0.874 | 0.0295 | -0.116 | -0.0245 | inactive
PI4K2B (GeneID 55300) | -0.0478 | 0.889 | 0.136 | 0.0287 | -0.0229 | inactive
BUB1B (GeneID 701) | -0.59 | 0.81 | 0.121 | 0.108 | 0.13 | inactive
PRKCZ (GeneID 5590) | -1.06 | 0.742 | -0.0278 | -0.0738 | -0.0288 | inactive
MAP3K14 (GeneID 9020) | -0.465 | 0.829 | -0.0222 | -0.119 | 0.0905 | inactive
MTOR (GeneID 2475) | 0.652 | 0.991 | -0.0937 | -0.081 | -0.232 | inactive
ARAF (GeneID 369) | 0.715 | 1 | -0.0151 | 0.0246 | -0.199 | inactive
MAPK12 (GeneID 6300) | 0.715 | 1 | -0.159 | -0.0478 | -0.181 | inactive
CDKN2D (GeneID 1032) | -2.05 | 0.598 | 0.056 | 0.0864 | -0.0542 | inactive
FCSK (GeneID 197258) | -2.17 | 0.581 | -0.0189 | -0.0884 | -0.0843 | inactive
PSKH2 (GeneID 85481) | -0.151 | 0.874 | 0.164 | 0.161 | -0.164 | inactive
TSSK2 (GeneID 23617) | 0.518 | 0.971 | -0.0101 | 0.0377 | -0.105 | inactive
NEK6 (GeneID 10783) | 0.715 | 1 | -0.0572 | -0.0902 | -0.0735 | inactive
TRPM7 (GeneID 54822) | -1.2 | 0.722 | -0.0615 | -0.0391 | -0.113 | inactive
CEP290 (GeneID 80184) | 0.715 | 1 | -0.0615 | 0.00446 | -0.0832 | inactive
NME4 (GeneID 4833) | 0.715 | 1 | -0.144 | -0.0623 | -0.28 | inactive
GRK3 (GeneID 157) | 0.706 | 0.999 | -0.0877 | -0.0462 | -0.262 | inactive
DTYMK (GeneID 1841) | 0.715 | 1 | -0.0561 | -0.0161 | -0.362 | inactive
MAPKAPK3 (GeneID 7867) | -0.591 | 0.81 | 0.154 | 0.165 | 0.0716 | inactive
PI4KA (GeneID 5297) | -0.876 | 0.769 | 0.0943 | 0.000247 | -0.193 | inactive
MOK (GeneID 5891) | 0.282 | 0.937 | 0.219 | 0.0532 | -0.179 | inactive
NPR2 (GeneID 4882) | 0.715 | 1 | 0.0359 | 0.0503 | -0.133 | inactive
PKN2 (GeneID 5586) | 0.715 | 1 | 0.142 | 0.0544 | -0.117 | inactive
RSKR (GeneID 124923) | 0.245 | 0.932 | -0.0402 | -0.0308 | 0.0593 | inactive
CDK19 (GeneID 23097) | 0.0852 | 0.909 | 0.0903 | -0.0123 | 0.0882 | inactive
PGK2 (GeneID 5232) | 0.715 | 1 | 0.126 | 0.00302 | -0.0831 | inactive
SOS2 (GeneID 6655) | 0.715 | 1 | -0.217 | -0.0687 | -0.253 | inactive
LIMK1 (GeneID 3984) | 0.715 | 1 | 0.0733 | 0.0606 | -0.278 | inactive

Ordered by “synergy score with BYL719” (ascending): some entries from above.
target | robust z-score, knock-down alone | viability, knock-down alone (fraction of control) | synergy score with trametinib | synergy score with cetuximab | synergy score with BYL719 | activity call
BLK (GeneID 640) | 0.715 | 1 | 0.0257 | -0.203 | -0.224 | inactive
CDKN1A (GeneID 1026) | 0.715 | 1 | -0.267 | -0.0872 | -0.21 | inactive
TESK1 (GeneID 7016) | 0.715 | 1 | 0.172 | -0.0181 | -0.0851 | inactive

Additional records follow:
target | robust z-score, knock-down alone | viability, knock-down alone (fraction of control) | synergy score with trametinib | synergy score with cetuximab | synergy score with BYL719 | activity call
STK33 (GeneID 65975) | -0.436 | 0.833 | 0.0786 | 0.0224 | -0.0492 | inactive
RPS6KB2 (GeneID 6199) | 0.715 | 1 | -0.0805 | -0.00592 | -0.00176 | inactive
TAOK2 (GeneID 9344) | 0.715 | 1 | 0.0499 | -0.026 | -0.309 | inactive
CERK (GeneID 64781) | 0.715 | 1 | -0.079 | 0.0756 | 0.00467 | inactive
FBXW7 (GeneID 55294) | 0.715 | 1 | 0.0204 | -0.0403 | -0.222 | inactive
STK31 (GeneID 56164) | 0.224 | 0.929 | 0.0271 | 0.027 | -0.193 | inactive
RPS6KL1 (GeneID 83694) | 0.715 | 1 | 0.25 | 0.192 | -0.0512 | inactive
PRKAB2 (GeneID 5565) | -1.25 | 0.714 | 0.179 | 0.0558 | 0.134 | inactive
WT1 (GeneID 7490) | 0.715 | 1 | 0.0439 | 0.0764 | -0.207 | inactive
SPHK2 (GeneID 56848) | 0.715 | 1 | -0.0411 | -0.0786 | -0.199 | inactive
SGK1 (GeneID 6446) | 0.715 | 1 | 0.1 | 0.0394 | 0.0135 | inactive
CHD4 (GeneID 1108) | -2.06 | 0.597 | 0.0567 | 0.0885 | 0.0196 | inactive
FES (GeneID 2242) | -1.23 | 0.718 | -0.0239 | -0.231 | -0.115 | inactive
CSK (GeneID 1445) | 0.715 | 1 | -0.0415 | -0.0954 | -0.111 | inactive
CDK5R2 (GeneID 8941) | 0.715 | 1 | -0.104 | -0.105 | -0.362 | inactive
SIK3 (GeneID 23387) | 0.715 | 1 | -0.0458 | -0.028 | -0.315 | inactive
GRK7 (GeneID 131890) | -1.64 | 0.658 | 0.0158 | -0.0078 | -0.144 | inactive
MAP3K15 (GeneID 389840) | -0.392 | 0.839 | 0.12 | -0.0202 | -0.0664 | inactive
NUAK2 (GeneID 81788) | -2.52 | 0.53 | -0.0144 | -0.105 | -0.293 | inactive
PKN3 (GeneID 29941) | 0.715 | 1 | 0.0816 | -0.0113 | -0.192 | inactive
PAPSS1 (GeneID 9061) | 0.173 | 0.921 | 0.22 | 0.101 | -0.0591 | inactive
MPP3 (GeneID 4356) | -1.7 | 0.65 | 0.236 | 0.152 | 0.135 | inactive
RUNX1 (GeneID 861) | -2.14 | 0.586 | -0.0593 | 0.0483 | -0.0579 | inactive
PRKX (GeneID 5613) | 0.192 | 0.924 | 0.109 | -0.0242 | -0.107 | inactive
MAP2K6 (GeneID 5608) | 0.669 | 0.993 | -0.0645 | -0.0775 | -0.0255 | inactive
ITSN1 (GeneID 6453) | -1.92 | 0.618 | -0.162 | -0.242 | -0.195 | inactive
PSKH1 (GeneID 5681) | 0.715 | 1 | -0.0717 | -0.0758 | -0.176 | inactive
